The name of at least one read-out is uncertain.
Test system: swine coronary arteries
Experiment: In vitro vasorelaxation in isolated swine coronary arteries (PGF2α-contracted rings)
Format: cell-based
Settings: read-out: Vasorelaxation in Swine Coronary Artery/IC50; 50% reduction in tension, 3 μM PGF2α; Table II
Protocol: Swine coronary arteries were obtained from a local slaughter house, dissected carefully and cleaned of fat, blood and adhering tissue. Rings approximately 2-3 mm wide were cut and transferred to water-jacketed tissue baths (10 ml) filled with warm (37° C.), oxygenated (O2 /CO2 :95%/5%) Krebs-Henseleit buffer and mounted on L-shaped hooks between stainless steel rods and a force transducer. […] Rings were equilibrated for 90 minutes with frequent buffer changes at a resting tension of 5 g In order to assure optimal tension development, arterial rings were primed twice with 36 mM KCl and once with 10 μm. PGF2α, before being exposed to 3 μM PGF2α. […] Tension achieved with 3 μM PGF2α was considered .equivalent to 100%; all other values were expressed as a percentage of that maximum.

`CCNC(=O)[C@H]1O[C@@H](n2cnc3c(NC4CC=CCC4c4cccs4)ncnc32)[C@H](O)[C@@H]1O` (single isomer, unassigned) [Example 22, N^6-[trans-2-(thiophen-2-yl)-cyclohex-4-en-1-yl]adenosine-5-N-ethyl carboxamide] was tested, and the EC50 was 100 nM.

From patent publication US5652366A, “DI (1R)-(-)camphosulfonic acid) salt, preparation thereof and use thereof” (Rhone-Poulenc Rorer Pharmaceuticals Inc., priority 1995, dated 1997)
